Values joined by “and” are separate entries in the source; they are usually repeats but may differ in a detail not shown here. Equal values may be shown once. Where a name gives a salt, the structure may show the parent alone. ± gives the standard deviation of the averaged measurements. The list shows a part of the results. This is a noisy data set.
test system: Salmonella enterica serovar Typhimurium ST313 D23580; assay: normalized bacterial growth (OD600 20 h minus 0 h, interquartile-mean normalized) (fraction of plate interquartile mean); higher = more bacterial growth (less inhibition); conditions: LPM (pH 5.8, low phosphate, low Mg2+), concentration: 10 µM, temperature: 37 °C

SMILES | normalized bacterial growth
COc1ccc(-c2cc(=O)c3c(OC)c(OC)c(OC)c(OC)c3o2)cc1OC | 0.962
Nc1ccc(S(=O)(=O)O)cc1.Nc1ccc(S(=O)(=O)O)cc1.[Zn] | 1.07
C#C[C@]1(O)CC[C@H]2[C@@H]3CCC4=Cc5oncc5C[C@]4(C)[C@H]3CC[C@@]21C [Danazol] | 0.963 ± 0.045
C#C[C@]1(O)CC[C@H]2[C@@H]3CCC4=Cc5oncc5C[C@]4(C)[C@H]3CC[C@@]21C | 0.789
O=C(Nc1ccc([N+](=O)[O-])cc1Cl)c1cc(Cl)ccc1O [Niclosamide] | 1.23
CCOc1ccc(Cc2nccc3cc(OCC)c(OCC)cc23)cc1OCC | 0.773
CC12CC3CC(C)(C1)CC(N)(C3)C2 [Memantine hydrochloride] | 1.06
CC(C)=CCc1c(O)cc2oc(C)cc(=O)c2c1O | 1.18
COc1ccc(-c2cc(=O)c3c(OC)c(OC)c(OC)c(OC)c3o2)cc1 | 1.02
CN1c2ccccc2C(=O)N2CCc3c([nH]c4ccccc34)C21 (stereo in doubt) | 1.03
O=C1C[C@@H](c2ccc(O)c(O)c2)Oc2c1ccc(O[C@@H]1O[C@H](CO)[C@@H](O)[C@H](O)[C@H]1O)c2O | 1.21
O=C1c2cccc(O)c2C(=O)c2c(O)cccc21 | 0.579
O=c1cc(N2CCOCC2)oc2c(-c3ccccc3)cccc12 ["LY-294,002 hydrochloride"] | 0.823
CCOC(N)=O | 1.67
CCCCCCCCCCCC[C@@H](C(=O)O)[C@H](C)C(=O)O | 1.14
CC(C)NNC(=O)c1ccncc1 [Iproniazid phosphate] | 1.11
CCN(CC)CCNC(=O)c1cc(Br)c(N)cc1OC | 1.04
CCCCC(=O)N(Cc1ccc(-c2ccccc2-c2nnn[nH]2)cc1)[C@H](C(=O)O)C(C)C | 1.31
C[C@H]1C(=O)CC[C@@H]2[C@]1(C)CC[C@H]1[C@@]2(C)CC[C@@]2(C)[C@@H]3CC(C)(C)CC[C@]3(C)CC[C@]12C | 1.1 ± 0.057
OC(CCN1CCCCC1)(c1ccccc1)c1ccccc1 | 0.94
CCOC(=O)C1=C(C)NC(C)=C(C(=O)OC)C1c1cccc(Cl)c1Cl (stereo not drawn) [Felodipine] | 0.913

SMILES | normalized bacterial growth
C[C@H](CCC(=O)O)[C@H]1CC[C@H]2[C@@H]3C(=O)C[C@@H]4CC(=O)CC[C@]4(C)[C@H]3CC(=O)[C@]12C | 0.948 and 0.873
C[C@H](CCC(=O)O)[C@H]1CC[C@H]2[C@@H]3C(=O)C[C@@H]4CC(=O)CC[C@]4(C)[C@H]3CC(=O)[C@]12C [Dehydrocholic acid] | 1.21
CO[C@H]1C[C@H](O[C@@H]2/C(C)=C/C[C@@H]3C[C@@H](C[C@]4(CC[C@H](C)[C@@H](C5CCCCC5)O4)O3)OC(=O)[C@@H]3C=C(C)/C(=N/O)[C@H]4OC/C(=C\C=C\[C@@H]2C)[C@]43O)O[C@@H](C)[C@@H]1O | 0.754
Cc1nc2sccn2c(=O)c1CCN1CCC(=C(c2ccc(F)cc2)c2ccc(F)cc2)CC1 [Ritanserin] | 0.695
O=C1c2c(O)ccc(O)c2C(=O)c2c(NCCNCCO)ccc(NCCNCCO)c21 [Mitoxantrone] | 1.1
COc1cc(O)cc(OC)c1OC | 0.942
O=C(NC(Cc1cc(=O)[nH]c2ccccc12)C(=O)O)c1ccc(Cl)cc1 (stereo not drawn) | 1.17
CCN1C(=O)C=CC1=O [N-Ethylmaleimide] | 0.969
CC(C)(C)NC[C@H](O)COc1cccc2c1CCCC2=O | 1.09
CC(C)(C)NC[C@H](O)COc1cccc2c1CCCC2=O [(-) -Levobunolol hydrochloride] | 0.967
C[N+](C)(C)CCOC(N)=O [Carbachol] | 0.847
COC(=O)C[C@H]1C2(C)CC34OC5(C)O[C@@]6([C@H](OC)C(OC(=O)C(C)C)[C@]7(C)C(/C(=C(/OC)C(C)C)C(=O)O[C@H]7c7ccoc7)[C@@]6(O5)[C@H](OC)[C@@]3(OC)C2OC(C)=O)[C@]14C (stereo partly drawn) | 0.709
Nc1ncn(C2OC(CO)C(O)C2O)c(=O)n1 (stereo not drawn) [Azacytidine-5] | 0.023
COC(=O)[C@H]1[C@H]2C[C@H]3c4[nH]c5cc(OC)ccc5c4CCN3C[C@H]2C[C@@H](OC(=O)c2cc(OC)c(OC)c(OC)c2)[C@@H]1OC | 0.585
CN(C)CCc1c[nH]c2ccc(CS(=O)(=O)N3CCCC3)cc12 | 0.91
COc1cc(/C=C/CO)ccc1O | 0.851
O=C(O)CCC(=O)c1ccc(-c2ccccc2)cc1 | 1.14
C[C@H]1[C@H](C)CC[C@]2(C(=O)O)CC[C@]3(C)C(=CC[C@@H]4[C@@]5(C)C[C@@H](O)[C@H](O)[C@@](C)(CO)[C@@H]5[C@H](O)C[C@]43C)[C@H]12 | 0.99 ± 0.27
CCN1CCCC1CNC(=O)c1cc(S(N)(=O)=O)ccc1OC (single isomer, unassigned; (-)) [(-)-Sulpiride] | 1.12
CN1CCN2c3ccccc3Cc3ccccc3C2C1 (stereo not drawn) [Mianserin hydrochloride] | 1.35
CCC(C)C(NC)C(=O)O (stereo not drawn) | 1.03

SMILES | normalized bacterial growth
CCCCS(=N)(=O)CCC(N)C(=O)O [L-Buthionine-sulfoximine] | 1.22
COc1cccc(OC)c1OCCNCC1CSc2ccccc2O1 (stereo not drawn) [Benoxathian hydrochloride] | 0.964
CC(=O)O[C@@H]1CC2C(C)(C)[C@H](O)CC[C@]2(C)C2CC[C@@]3(C)[C@H](c4ccoc4)OC(=O)C4OC43[C@@]21C (stereo partly drawn) [alpha-DIHYDROGEDUNOL] | 0.815
CCC(C)(C)C(=O)O[C@H]1C[C@@H](C)C=C2C=C[C@H](C)[C@H](CC[C@@H]3C[C@@H](O)CC(=O)O3)[C@H]21 | 0.888
CC1(C)CC2C1CC[C@]1(CBr)CCC3C(CC(=O)O)C(=O)O[C@@]32C1 (stereo partly drawn) [BROMO-3-HYDROXY-4-(SUCCIN-2-YL)-CARYOLANE gamma-LACTONE] | 1.08
COc1cc(CNC(=O)CCCCCCC(C)C)ccc1O [Dihydrocapsaicin] | 0.42
CCCc1nn(C)c2c(=O)[nH]c(-c3cc(S(=O)(=O)N4CCN(C)CC4)ccc3OCC)nc12 | 0.9
COc1cc(O)c(C(=O)/C=C/c2ccccc2)c(OC)c1 | 0.454
O=C1CC[C@]23/C=C/C(=O)NCCCCNCCCNC(=O)/C=C/c4ccc(c2c4)O[C@@H]3C1 | 1.06
C=C[C@@]1(C)CC(=O)[C@@]2(O)[C@](C)(O1)[C@@H](O)[C@@H](O)C1C(C)(C)CC[C@H](O)[C@@]12C (stereo partly drawn) | 1.01
OC[C@H]1NC[C@@H](O)[C@@H]1O ["1,4-Dideoxy-1,4-imino-D-arabinitol"] | 1.12
Cc1nc2c([nH]1)c(=O)n(C)c(=O)n2Cc1ccco1 [Furafylline] | 1.02
COc1ccc(C(C)=O)c(OC)c1 | 1.16
CC(NCCc1ccc(O)cc1)C(O)c1ccc(O)cc1 (stereo not drawn) [Ritodrine hydrochloride] | 1.12 ± 0.061
CC(NCCc1ccc(O)cc1)C(O)c1ccc(O)cc1 (stereo not drawn) | 1.16
NC[C@@H]1O[C@H](O[C@H]2[C@@H](O)[C@H](O[C@@H]3[C@@H](O)[C@H](N)C[C@H](N)[C@H]3O[C@H]3O[C@H](CN)[C@@H](O)[C@H](O)[C@H]3N)O[C@@H]2CO)[C@H](N)[C@@H](O)[C@@H]1O | 1.11
CCC1(C)CC(=O)NC1=O (stereo not drawn) [Ethosuximide] | 1.22
NC1CONC1=O (racemic) [DL-Cycloserine] | 1.05
OCCN1CCN(CC/C=C2/c3ccccc3Sc3ccc(Cl)cc32)CC1 [Zuclopenthixol hydrochloride] | 1.16
Cc1c(S(=O)(=O)O)oc2c1C(=O)C(=O)c1c-2ccc2c1CCCC2(C)C | 0.684
NCCCS(=O)(=O)O | 1.06

SMILES | normalized bacterial growth
NCCCS(=O)(=O)O [3-Amino-1-propanesulfonic acid sodium] | 0.687
Nc1nc(/C(=C/CC(=O)O)C(=O)N[C@@H]2C(=O)N3C(C(=O)O)=CCS[C@H]23)cs1 | 0.996
C=CCN1CCc2cc(O)c(O)cc2C(c2ccccc2)C1 (stereo not drawn) | 0.943
O=C(/C=C/c1ccccc1)c1ccc(O)cc1 | 1.12
CC1=CC(=O)C2=C(C)CC[C@@H]3[C@H](OC(=O)[C@H]3C)[C@@H]12 | 0.81
CN(C)CCOC(=O)C(c1ccccc1)C1(O)CCCC1 (stereo not drawn) | 1.11
Nc1ccc(/N=N/c2ccccc2)c(N)n1 | 0.702
CCC(=O)O[C@]1(C(=O)SCF)[C@H](C)C[C@H]2[C@@H]3C[C@H](F)C4=CC(=O)C=C[C@]4(C)[C@@]3(F)[C@@H](O)C[C@@]21C [Fluticasone propionate] | 0.925
C[N+]1(C)CCCC1C(=O)O (stereo not drawn) [Stachydrine hydrochloride] | 1.15
O=C(O)c1ccccc1Nc1cccc(C(F)(F)F)c1 | 1.39
CC[N+](C)(CC)CCC[n+]1c(-c2ccccc2)c2cc(N)ccc2c2ccc(N)cc21 [Propidium iodide] | 1.35
OCCc1ccccc1 | 1.17
CC(=O)Nc1ccc(S(=O)(=O)c2ccc(NC(C)=O)cc2)cc1 | 0.976
O=C1O[C@H]([C@@H](O)CO)C(O)=C1O [Ascorbic acid] | 1.24
O=C1O[C@H]([C@@H](O)CO)C(O)=C1O | 0.789
Clc1ccc(C(c2ccccc2Cl)C(Cl)Cl)cc1 (stereo not drawn) ["1-(2-Chlorophenyl)-1-(4-chlorophenyl)-2,2-dichloroethane"] | 0.7
C[C@@H]1CC[C@@]2(OC1)O[C@H]1C[C@H]3[C@@H]4CC=C5C[C@@H](O)CC[C@]5(C)[C@H]4CC[C@]3(C)[C@H]1[C@@H]2C | 1.26
CC(=O)Oc1cc(C)c2c(c1C=O)Oc1c(c(C)c(OC(C)=O)c3c1C(OC(C)=O)OC3=O)OC2=O (stereo not drawn) | 0.926
Nc1ccc(C(=O)O)c(O)c1 | 0.972
CCCCCCCCCCCCCCCCCCNC(=O)OCC(COP(=O)([O-])OCC[n+]1ccsc1)OC (stereo not drawn) | 1.17

Reference: the supplement of paper PMC10398353
